Reference: PubChem BioAssay AID504793 (Drosophila RNAi Screening Center, 2011)
Test: 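Genes required for cells to halt at G2/M after double-strand DNA breaks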 (primary screen). Cell system: Drosophila S2R+ cells. Reagents: long dsRNA against Drosophila genes, about 0.25 µg dsRNA per well. Duration: 4 days of dsRNA, then 4 hours of drug before read-out. Treatment: doxorubicin 0.5 µM for 4 hours to cause double-strand breaks, in cells also given a low, harmless dose of dsRNA against nbs to sensitise the assay. Measurement: 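Mitotic index as the number of phospho-histone H3-positive cells in each well following doxorubicin, given as raw counts without normalisation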. Scale: mitotic cells: higher = more cells in mitosis, weaker G2 arrest. Hit rule: 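Genes are called active only when high mitotic counts were reproduced with independent dsRNAs and mitosis was checked for delay without damage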. Meaning of the calls: active = confirmed in follow-up tests; inactive = not confirmed.
The screen tested about 23,000 reagents; below is an unselected part of those that have a named target and a result. In the full data, 62 (0.27%) are marked active. 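Calls come from follow-up tests whose scores are not deposited, so confirmed genes may have low counts here; counts are not normalised per plate.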 Raw values are not corrected between plates. The numbers tell different reagents against one gene apart. Names joined by + are all predicted targets of the reagent.

CG32081 | mitotic cells, replicate 1: 8; activity call: inactive
Gem3 | mitotic cells, replicate 1: 4; activity call: inactive
peg #1 | mitotic cells, replicate 1: 4; activity call: inactive
peg #2 | mitotic cells, replicate 1: 5; activity call: inactive
Cyp12d1-d + Cyp12d1-p #1 | mitotic cells, replicate 1: 10; activity call: inactive
Cyp12d1-d + Cyp12d1-p #2 | mitotic cells, replicate 1: 7; activity call: inactive
Uba2 | mitotic cells, replicate 1: 2; activity call: inactive
CG14615 | mitotic cells, replicate 1: 7; activity call: inactive

Next part (2 carried over from the part before).
Uba2 | mitotic cells, replicate 1: 2; activity call: inactive
CG14615 | mitotic cells, replicate 1: 7; activity call: inactive
nanos #1 | mitotic cells, replicate 1: 5; activity call: inactive
nanos #2 | mitotic cells, replicate 1: 8; activity call: inactive
Pym | mitotic cells, replicate 1: 12; activity call: inactive
CG3663 #1 | mitotic cells, replicate 1: 2; activity call: inactive
CG3663 #2 | mitotic cells, replicate 1: 6; activity call: inactive
CG42355 | mitotic cells, replicate 1: 5; activity call: inactive
